According to patent publication US20100021421A1 (MCGILL UNIVERSITY, published 2010):
Results are given in words; binding and its absence hold for the method and conditions named. Some entries that bind do so weakly or less than the wild type. Sequences can lack the tags named with a protein.

Molecular target: T1, recombinant mouse IL-15Ralpha-Fc (mouse), Q60819
T1 chain: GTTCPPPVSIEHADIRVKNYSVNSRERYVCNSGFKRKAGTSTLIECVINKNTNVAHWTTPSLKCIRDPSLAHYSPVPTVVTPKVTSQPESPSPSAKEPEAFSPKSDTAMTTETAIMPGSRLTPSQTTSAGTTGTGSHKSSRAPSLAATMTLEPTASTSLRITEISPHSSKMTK
Test: SPR (BIACORE 3000), rIL-15Rα-Fc amine-coupled on a CM5 chip, analyte injected 180 sec association + 180 sec dissociation
Conditions: remark: other sources report otherwise

binding: binds
B1: recombinant mouse IL-15, P48346 49-162 (ligand, UniProt P48346 49-162, looked up)
chain: NWIDVRYDLEKIESLIQSIHIDTTLYTDSDFHPSCKVTAMNCFLLELQVILHEYSNMTLNETVRNVLYLANSTLSSNKNVAESGCKECEELEEKTFTEFLQSFIRIVQMFINTS
